{"source": "PubChem BioAssay AID1224830 (NIAID, 2016)", "test": "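Regulators of TLR4 signalling towards TNF-alpha in macrophage-like cells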 (primary screen)", "cell system": "human THP-1 monocytic leukaemia cells, TNF dual-luciferase reporter clone, PMA-differentiated to macrophage-like cells", "reagents": "siRNA pool against human genes, 50 nM", "time to read-out": "LPS for 4 h, given about 3 days after siRNA transfection", "challenge": "bacterial LPS (TLR4 ligand), 10 ng/ml", "measurement": "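TNF firefly reporter luminescence divided by renilla, normalised to the plate median, then turned into a robust z-score for each replicate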", "scale": "TNF reporter robust z-score: higher = stronger TNF reporter response to LPS", "rule for the call": "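a well is active when its z-score exceeds 2.8 or falls below -1.5; control wells carry no call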", "note": "The whole screen tested about 18,000 reagents; below is an unselected part. In the full data, about 2,900 (16%) got an active call. 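Calls are made per well; low scores hint the gene aids the LPS response, high scores that it dampens it.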 Entries without a mark were called inactive. Repeated entries: four replicate wells of each siRNA pool."}
{"Gene":"CRELD2","PubChem SID":"SID315459246","TNF reporter robust z-score":-0.06}
{"Gene":"CRELD2","PubChem SID":"SID315459246","TNF reporter robust z-score":-0.41}
{"Gene":"CRELD2","PubChem SID":"SID315459246","TNF reporter robust z-score":-0.56}
{"Gene":"CRELD2","PubChem SID":"SID315459246","TNF reporter robust z-score":0.43}
{"Gene":"BAIAP2L2","PubChem SID":"SID315459650","TNF reporter robust z-score":-1.01}
{"Gene":"BAIAP2L2","PubChem SID":"SID315459650","TNF reporter robust z-score":-0.24}
{"Gene":"BAIAP2L2","PubChem SID":"SID315459650","TNF reporter robust z-score":-0.6}
{"Gene":"BAIAP2L2","PubChem SID":"SID315459650","TNF reporter robust z-score":0.29}
{"Gene":"CEACAM6","PubChem SID":"SID315450152","TNF reporter robust z-score":-0.92}
{"Gene":"CEACAM6","PubChem SID":"SID315450152","TNF reporter robust z-score":-0.62}
{"Gene":"CEACAM6","PubChem SID":"SID315450152","TNF reporter robust z-score":-0.83}
{"Gene":"CEACAM6","PubChem SID":"SID315450152","TNF reporter robust z-score":-0.95}
{"Gene":"MISP","PubChem SID":"SID315461705","TNF reporter robust z-score":-0.18}
{"Gene":"MISP","PubChem SID":"SID315461705","TNF reporter robust z-score":1.66}
{"Gene":"MISP","PubChem SID":"SID315461705","TNF reporter robust z-score":0.8}
{"Gene":"MISP","PubChem SID":"SID315461705","TNF reporter robust z-score":0.51}
{"Gene":"ZNF322P1","PubChem SID":"SID315464433","TNF reporter robust z-score":0.4}
{"Gene":"ZNF322P1","PubChem SID":"SID315464433","TNF reporter robust z-score":-0.61}
{"Gene":"ZNF322P1","PubChem SID":"SID315464433","TNF reporter robust z-score":-0.06}
{"Gene":"SYNGR2","PubChem SID":"SID315453080","TNF reporter robust z-score":-0.63}
{"Gene":"SYNGR2","PubChem SID":"SID315453080","TNF reporter robust z-score":-0.06}
{"Gene":"SYNGR2","PubChem SID":"SID315453080","TNF reporter robust z-score":1.21}
{"Gene":"SYNGR2","PubChem SID":"SID315453080","TNF reporter robust z-score":1.37}
{"Gene":"ZKSCAN4","PubChem SID":"SID315464421","TNF reporter robust z-score":0.66}
{"Gene":"ZKSCAN4","PubChem SID":"SID315464421","TNF reporter robust z-score":0.11}
{"Gene":"ZKSCAN4","PubChem SID":"SID315464421","TNF reporter robust z-score":0.13}
{"Gene":"ZKSCAN4","PubChem SID":"SID315464421","TNF reporter robust z-score":0.35}
{"Gene":"NOTCH3","PubChem SID":"SID315450281","TNF reporter robust z-score":-0.59}
{"Gene":"NOTCH3","PubChem SID":"SID315450281","TNF reporter robust z-score":0.14}
{"Gene":"NOTCH3","PubChem SID":"SID315450281","TNF reporter robust z-score":-0.03}
{"Gene":"NOTCH3","PubChem SID":"SID315450281","TNF reporter robust z-score":1.11}
{"Gene":"FAM168A","PubChem SID":"SID315455068","TNF reporter robust z-score":-0.51}
{"Gene":"FAM168A","PubChem SID":"SID315455068","TNF reporter robust z-score":-0.03}
{"Gene":"FAM168A","PubChem SID":"SID315455068","TNF reporter robust z-score":1.69}
{"Gene":"FAM168A","PubChem SID":"SID315455068","TNF reporter robust z-score":0.84}
{"Gene":"ADPGK","PubChem SID":"SID315459987","TNF reporter robust z-score":0.86}
{"Gene":"ADPGK","PubChem SID":"SID315459987","TNF reporter robust z-score":2.68}
{"Gene":"ADPGK","PubChem SID":"SID315459987","TNF reporter robust z-score":2.34}
{"Gene":"ADPGK","PubChem SID":"SID315459987","TNF reporter robust z-score":1.42}
{"Gene":"ASPHD1","PubChem SID":"SID315463437","TNF reporter robust z-score":-1.16}
{"Gene":"ASPHD1","PubChem SID":"SID315463437","TNF reporter robust z-score":-0.9}
{"Gene":"ASPHD1","PubChem SID":"SID315463437","TNF reporter robust z-score":-0.1}
{"Gene":"ASPHD1","PubChem SID":"SID315463437","TNF reporter robust z-score":0.03}
{"Gene":"SEMG2","PubChem SID":"SID315451373","TNF reporter robust z-score":-0.21}
{"Gene":"SEMG2","PubChem SID":"SID315451373","TNF reporter robust z-score":-0.09}
{"Gene":"SEMG2","PubChem SID":"SID315451373","TNF reporter robust z-score":-0.05}
{"Gene":"SEMG2","PubChem SID":"SID315451373","TNF reporter robust z-score":0.43}

7 successive entries already listed, quoted:
{"Gene":"CEACAM6","PubChem SID":"SID315450152","TNF reporter robust z-score":-0.83}
{"Gene":"CEACAM6","PubChem SID":"SID315450152","TNF reporter robust z-score":-0.95}
{"Gene":"MISP","PubChem SID":"SID315461705","TNF reporter robust z-score":-0.18}
{"Gene":"MISP","PubChem SID":"SID315461705","TNF reporter robust z-score":1.66}
{"Gene":"MISP","PubChem SID":"SID315461705","TNF reporter robust z-score":0.8}
{"Gene":"MISP","PubChem SID":"SID315461705","TNF reporter robust z-score":0.51}
{"Gene":"ZNF322P1","PubChem SID":"SID315464433","TNF reporter robust z-score":0.4}
